Consider 39 compounds from PubChem BioAssay AID2685 (National Center for Advancing Translational Sciences (NCATS), 2010).

The other results are listed elsewhere or left out. These are further read-outs of the screen, such as a control signal, another cell line or another target. No call is given for them. Compounds called inactive in the main read-out are mostly missing here. Words in brackets tell the shape of the fitted curve; partial curves, single points and poor fits give uncertain potencies.

This assay in a line: qHTS Assay for Lipid Storage Modulators in Drosophila S3 Cells.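 For cell number change: cells counted by Cell Tracker Red CMTPX staining in the red channel.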 As to conditions: BODIPY lipid droplet fluorescence, 18-24 h; for cell number change: measured here: cell count max response, cells fed with added oleic acid. In a few lines:
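Laser-scanning cytometry quantifies lipid droplet accumulation (500–530 nm total intensity; droplet/cell object ratio) in oleic acid-fed (400 uM added) Drosophila S3 cells treated with a concentration series. 20 uM Triacsin C defined 100% inhibition.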

[1] abbreviates: measured here: cell number channel AC50, cells fed with added oleic acid.
Where [2] appears, read: measured here: lipid fluorescence (Fed channel) AC50, cells fed with added oleic acid.

On to `C=CCc1cccc2cc(C(=O)N(C)C)c(=O)oc12`, for which the cell number change was -30.3%. The AC50 under setting [1] was 0.103 µM [falling, full curve, poor fit]. On to `Cc1cccc(C(=O)Nc2oc(-c3ccccc3)cc2C#N)c1`, for which the cell number change was found to be 1.23%. For the compound `Cc1cc(C)cc(OCC(=O)OCC(=O)Nc2cc(C)nn2-c2ccccc2)c1`, the cell number change is -16.2%. Under setting [1], the AC50 was 0.103 µM [falling, full curve, poor fit]. In addition, the AC50 under setting [2] was 0.103 µM [falling, full curve, poor fit]. As to `O=C(COC(=O)c1ccc(S(=O)(=O)NCc2ccco2)cc1)NCCC1=CCCCC1`, the cell number change is -2.44%. Besides, the AC50 under setting [2] was 4.61 µM [falling, single point]. Consider `CCCc1cc(=O)n2[nH]c(C)cc2n1`, for which the cell number change came out at 6.39%. In addition, the AC50 under setting [2] is 2.31 µM [rising, single point]. For the compound `Cc1cc(C)nc(-n2nc(C)cc2Nc2ccccc2)n1`, the cell number change is -7.34%.

Take `O=C(CCN1C(=O)c2ccccc2C1=O)Nc1ccncc1`: the cell number change is -14.1%. Besides, under setting [1], the AC50 is 0.82 µM [falling, full curve, poor fit]. In addition, the AC50 under setting [2] is 29.1 µM [falling, single point]. As to `O=C(NNC(=O)c1ccccc1Cl)c1ccncc1`, the cell number change is -1.75%. Moreover, the AC50 under setting [2] is 0.92 µM [falling, full curve, poor fit]. `CC(=O)c1c(C)[nH]c(=S)c(C#N)c1-c1ccc(Cl)cc1`: the cell number change is -23.6%. Besides, the AC50 under setting [2] was 23.1 µM [falling, partial curve, poor fit]. On to `O=C(COC(=O)c1ccc(F)cc1F)Nc1ccc2[nH]c(=O)[nH]c2c1`, for which the cell number change came to 15.3%. Regarding `NS(=O)(=O)c1ccc(NC(=O)COC(=O)C2(c3ccc(F)cc3)CCCC2)cc1`, the cell number change is -12%. Under setting [2], the AC50 is 29.1 µM [falling, single point]. For `O=C(c1ccc2c(c1)OCO2)C1CCCN(Cc2ccc(OC(F)F)cc2)C1` (centres undefined), the cell number change is -31%. For the same compound, the AC50 under setting [1] was 29.1 µM [falling, single point]. Besides, under setting [2], the AC50 is 29.1 µM [falling, single point]. As to `Cc1ccc(N(CC(=O)N/N=C/c2ccc(OC3CSC3)cc2)S(=O)(=O)c2ccccc2)c(C)c1`, the cell number change is -29.3%. Under setting [2], the AC50 was 16.4 µM [falling, single point]. With `CC/C(=N\NC(=O)c1ccc(N(C)C)cc1)c1ccccc1`, the cell number change turned out to be 30.6%. Moreover, the AC50 under setting [1] is 5.17 µM [rising, full curve, poor fit]. The AC50 under setting [2] was 5.8 µM [rising, full curve, poor fit]. As for `OCCN1CCN(c2nc(-c3ccccc3)nc3c2oc2ccccc23)CC1`, the AC50 under setting [2] is 0.651 µM [rising, partial curve]. Turning to `COc1cccc(/C(C)=N/NC(=O)c2ccc(N(C)C)cc2)c1`, the cell number change was -27.8%. In addition, the AC50 under setting [2] was 5.17 µM [falling, partial curve]. Take `CSc1nc(C)c(CCOC(=O)c2ccccc2)c(=O)[nH]1`: the cell number change is 12.4%. Further, the AC50 under setting [2] is 0.731 µM [rising, full curve].

Take `CC(=O)Nc1ccc(S(=O)(=O)Nc2ccc(-c3ccc4nnc(C)n4n3)cc2)cc1`: the cell number change was -3.08%. The AC50 under setting [1] was 3.66 µM [falling, single point]. As for `CCOc1ccc2nc(-c3ccccc3)[nH]c2c1`, the cell number change was -24.9%. For `CC(C)OC(=O)c1ccc(Cn2nnc3ccccc3c2=O)cc1`, the cell number change worked out at 103%. Also, under setting [1], the AC50 was 16.4 µM [rising, partial curve]. Besides, the AC50 under setting [2] is 0.231 µM [rising, full curve].

Take `FC(F)(F)c1cccc(N2CCN(c3ccc4nnc(-c5ccccc5)n4n3)CC2)c1`: the cell number change was -52.1%. In addition, the AC50 under setting [1] was 23.1 µM [falling, partial curve, poor fit]. On to `Cc1[nH]c2ccc(C(=O)NCCCN3CCN(C)CC3)cc2c1C`, for which the cell number change is 22.2%. As for `COc1ccc(-n2c(C)cc(/C=N/Nc3nnc(C)n3N)c2C)cc1`, the cell number change was -42.7%. For the same compound, under setting [1], the AC50 was 16.4 µM [falling, partial curve]. Besides, the AC50 under setting [2] is 13 µM [falling, partial curve]. In the case of `Cn1c(CCN2CCCCC2)nc2cc(NS(=O)(=O)c3ccc(F)cc3)ccc21`, the cell number change was -13.7%.

As to `O=C(COC(=O)[C@H](Cc1ccccc1)NC(=O)c1ccco1)NCc1ccccc1`, the cell number change was -19%. Further, the half-maximal activity concentration (AC50) under setting [2] was 29.1 µM [rising, single point]. `Cc1noc(C)c1COC(=O)c1ccc(F)c(S(=O)(=O)N2CCCCC2)c1`: the cell number change came to 13.3%. Also, the AC50 under setting [1] was 0.82 µM [rising, partial curve, poor fit]. Consider `CCOc1ccccc1NC(=O)c1ccc2ccccc2c1`, for which the cell number change is 7.3%. For the same compound, the AC50 under setting [2] is 0.13 µM [rising, full curve, poor fit].

In the case of `O=C(c1cc(COc2ccc3ncccc3c2)on1)N1CCC(O)CC1`, the cell number change came out at 12.1%. Also, the AC50 under setting [2] was 1.03 µM [rising, full curve, poor fit]. Consider `CCCn1c(=O)c(C(=O)NNC(=O)Cc2ccccc2)c(O)c2ccccc21`, for which the cell number change came to 6.41%. On to `Cc1ccccc1C(=O)NC1CCN(CC(=O)N2CCCCC2C)CC1` (centres undefined), for which the cell number change was -3.85%.

On to `CCOCCCNC(=O)C(c1ccc(OC)cc1)N(Cc1ccc2c(c1)OCO2)C(=O)c1ccccn1` (centres undefined), for which the cell number change was -41.9%. Besides, the AC50 under setting [1] was 32.6 µM [falling, single point]. Moreover, the AC50 under setting [2] is 29.1 µM [falling, single point].

As for `Cn1c(=S)n(C)c2ccccc21`, the cell number change is -48.2%. Also, the AC50 under setting [1] was 29.1 µM [falling, single point]. For the same compound, the AC50 under setting [2] was 20.6 µM [falling, single point].

On to `FC(F)(F)c1ccc(C2[C@H]3CN(Cc4cccnc4)[C@H](c4ccccc4)C34CC2(c2cccnc2)C4)cc1` (some centres undefined), for which, under setting [2], the AC50 was 2.06 µM [rising, partial curve, poor fit]. `COc1ccccc1C(=O)NCCC(=O)Nc1ccc(S(=O)(=O)N2C(C)CCCC2C)cc1` (centres undefined): the cell number change was -0.184%. Further, under setting [2], the AC50 was 6.51 µM [falling, full curve].

Regarding `CCOC(=O)c1sc2ncn(C(CC)C(=O)OCC)c(=O)c2c1C` (centres undefined), the cell number change was -21.1%. For the same compound, the AC50 under setting [2] was 1.64 µM [rising, full curve, poor fit]. On to `Cn1c(C(=O)N2CCN(c3ccccn3)CC2)cc2ccccc21`, for which the cell number change was 12.9%. Also, the AC50 under setting [2] was 32.6 µM [falling, single point]. Turning to `O=C(CN1C(=O)NC(c2ccccc2)(c2ccccc2)C1=O)NCc1ccccc1`, the cell number change is -8.65%. Consider `Cc1cccc2sc(NC(=O)CSCc3ccccc3)nc12`, for which the AC50 under setting [2] was 0.326 µM [falling, partial curve, poor fit]. With `COc1ccc(S(=O)(=O)CC(=O)c2cc3cc(Br)ccc3oc2=O)cc1`, the cell number change is -27.6%. Moreover, the AC50 under setting [2] was 6.51 µM [falling, single point].

What is called AC50 is the concentration giving half of the maximal activity seen. A higher AC50 goes with weaker potency.
